Results reported in patent publication US9193777B2 (Mayo Foundation for Medical Education and Research, priority 2009, dated 2015).

Test: peptide made by a vendor
Settings: whole synthesis

Substance: Ac-CYRITAREDKQGWA-OH
- final HPLC purity: 96%
